Results deposited as PubChem BioAssay AID602196 (INSERM, 2012)

- Purpose: 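Modifiers of cisplatin sensitivity in A549 cells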
- System: human A549 lung cancer cells
- Reagents: siRNA pair against human genes
- Time to read-out: 48 h transfection before cisplatin; time from cisplatin to read-out not stated
- Challenge: cisplatin at a dose killing half of control-siRNA cells; exact dose and duration not given
- Measured: 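Shift in cisplatin death relative to control siRNA, from -50 (all cells die) to +50 (no cells die); siRNAs harmful on their own scored 0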
- Direction: two-siRNA summed score (-2 to +2): higher = both siRNAs protect from cisplatin killing; -2 means both sensitise; mean protection from cisplatin (shift in death) and protection from cisplatin (shift in death), siRNA C: higher = protection from cisplatin killing
- Rule for the call: 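Each siRNA scores 0 if harmful alone by LDH or WST-1, otherwise +1 if it reduces and -1 if it increases cisplatin killing; a gene is active when both siRNAs agree (sum +2 or -2)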
- Calls: active = both siRNAs shift cisplatin killing the same way; inactive = no consistent shift, or siRNA harmful alone
In all, the deposit lists about 23,000 reagents; below is an unselected part. 455 of them (2%) were called active. 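Active includes both protection and sensitisation; some change values fall well beyond the stated -50 to +50 range.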 Further read-outs or replicates are left out here. Not given: the amount of reagent.

Target gene | two-siRNA summed score (-2 to +2) | mean protection from cisplatin (shift in death) (%) | protection from cisplatin (shift in death), siRNA C (%) | outcome
LRCH1 | 0 | 11.7 | 5.6 | inactive
RFLNA | 0 | 7.3 | 11.6 | inactive
PLAGL1 | 0 | 4.9 | 5.8 | inactive
SYCP3 | 0 | -0.4 | 8.2 | inactive
HARBI1 | 0 | 3.3 | 6.5 | inactive
IGSF9 | -1 | -11.3 | -6.5 | inactive
POTEB3 | 1 | 8.4 | 6.8 | inactive

2 of these entries in another layout:
Target gene	two-siRNA summed score (-2 to +2)	mean protection from cisplatin (shift in death) (%)	protection from cisplatin (shift in death), siRNA C (%)	outcome
HARBI1	0	3.3	6.5	inactive
IGSF9	-1	-11.3	-6.5	inactive

More reagents:
Target gene | two-siRNA summed score (-2 to +2) | mean protection from cisplatin (shift in death) (%) | protection from cisplatin (shift in death), siRNA C (%) | outcome
MGP | 0 | 3.3 | 10.3 | inactive
MARCHF1 | -1 | -14.4 | -0.4 | inactive
SPRY3 | 0 | 3.6 | 2.6 | inactive
GBP7 | 0 | 7 | 6.5 | inactive
ITPKA | 0 | -4.2 | 4 | inactive
GAPDHP74 | 1 | 9.7 | 8 | inactive
LOC440859 | 0 | 22.5 | 27 | inactive
BLVRA | 1 | 21.9 | 23.7 | inactive
OR10A3 | 0 | -0.5 | -2.3 | inactive
GNG4 | 0 | -6.7 | -14.7 | inactive
LOC389328 | 1 | 26.5 | 23.1 | inactive
ARHGEF4 | 0 | -22 | -9.9 | inactive
NOL3 | -1 | -9.1 | -3.1 | inactive
DCAF11 | 0 | 8.7 | 14.9 | inactive
TXNDC9 | -1 | -19.6 | -28.4 | inactive
FAM3D | 0 | -0.7 | -12.6 | inactive
